Changes are numbered by the printed parent chain. For some of these results: A weaker result is weaker than the reference pair of the same experiment. Where a protein sequence is shown, tags need not be part of it. For some of these results: For at least one entry, the source does not settle the construct or the ends of the probe. For some of these results: At least one verdict was read from the data and is not stated in words by the source.
What was measured:
Assay in all cases: EMSA
[1] = target: T1, SDN1 2FA F318A,F356A (Arabidopsis thaliana) (UniProt A3KPE8); settings: no Mg2+, EMSA: 50 mM Tris pH 8.0, 100 mM NaCl, 1 mM DTT, 2 nM RNA, on ice 30 min, 8% native PAGE in 0.5x TBE, recombinant protein, residues 2-409, protein details: His-SUMO tag removed
T1 sequence (looked up): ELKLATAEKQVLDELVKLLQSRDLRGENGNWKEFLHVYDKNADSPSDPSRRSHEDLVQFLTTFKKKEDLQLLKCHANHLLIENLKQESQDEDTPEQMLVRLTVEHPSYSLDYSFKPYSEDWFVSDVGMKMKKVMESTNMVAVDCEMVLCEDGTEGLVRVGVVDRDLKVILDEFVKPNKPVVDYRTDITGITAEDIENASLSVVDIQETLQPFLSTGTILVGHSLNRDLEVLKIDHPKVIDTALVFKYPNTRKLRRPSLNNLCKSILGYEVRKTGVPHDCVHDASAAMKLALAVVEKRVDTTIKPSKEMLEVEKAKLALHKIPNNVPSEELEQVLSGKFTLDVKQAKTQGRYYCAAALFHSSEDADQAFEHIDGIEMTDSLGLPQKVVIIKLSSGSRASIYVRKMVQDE

[2] = target: T2, SDN1 F318A (Arabidopsis thaliana) (UniProt A3KPE8); settings: no Mg2+, EMSA: 50 mM Tris pH 8.0, 100 mM NaCl, 1 mM DTT, 2 nM RNA, on ice 30 min, 8% native PAGE in 0.5x TBE, recombinant protein, residues 2-409, protein details: His-SUMO tag removed, label: 5' 32P
T2 sequence (looked up): T1 sequence (looked up) with A355F

[3] = target: T3, SDN1 wild type (Arabidopsis thaliana) (UniProt A3KPE8); settings: no Mg2+, EMSA: 50 mM Tris pH 8.0, 100 mM NaCl, 1 mM DTT, 2 nM RNA, on ice 30 min, 8% native PAGE in 0.5x TBE, recombinant protein, residues 2-409, protein details: His-SUMO tag removed, label: 5' 32P
T3 sequence (looked up): T1 sequence (looked up) with A317F, A355F

Row | Sequence | binding result ([1]; label: 5' 32P on miR166 strand) | binding result ([1]; label: 5' 32P) | binding result [2] | binding result [3]
1 | UCGGACCAGGCUUCAUCCCCC / GAUUCCCCUGAAGCUUGGUCCGGAUUA [miR166:T6] | binds more weakly | – | – | –
2 | UCGGACCAGGCUUCAUCCCCC [miR166] | – | binds more weakly | binds more weakly | binds

Reference: PMC6123492, “Structural and biochemical insights into small RNA 3′ end trimming by Arabidopsis SDN1”
